Assay [1] deals with T1, V5-zfVDAC2 (pcDNA3.1-V5-zfVDAC2) (zebrafish) (UniProt Q8AWD0).
T1 sequence: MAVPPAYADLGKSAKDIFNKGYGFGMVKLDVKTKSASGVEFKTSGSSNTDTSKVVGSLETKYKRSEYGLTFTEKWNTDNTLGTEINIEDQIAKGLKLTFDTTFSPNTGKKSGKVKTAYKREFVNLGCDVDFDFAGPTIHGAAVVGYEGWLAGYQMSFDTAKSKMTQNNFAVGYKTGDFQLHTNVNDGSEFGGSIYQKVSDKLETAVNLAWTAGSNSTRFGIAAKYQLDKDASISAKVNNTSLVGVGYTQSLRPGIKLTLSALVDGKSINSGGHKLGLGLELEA
Briefly: co-IP.

Assay [2] deals with mfVDAC2-BD (mandarin fish). Briefly: two-hybrid.

Results are given in words; binding and its absence hold for the method and conditions named. For some assays here: In cells and extracts the contact can be indirect. For some assays here: Binding can be weak; no strength is given. Tags and fused reporters may be left off the sequences shown.

Here are results for two molecules from article doi:10.1101/2025.11.13.688210.

As for HA-p71 (pCMV-HA-ORF71), the binding entry in assay [1] was “binds”.

B1: p7-AD (protein, UniProt Q4ZD58 1-486)
chain: MLTAIDYLTKKGWKISSDPRTYDGYPKNYGYRNYHENGINYDEFCGGYHRAFDVYSNETNDVPAVTSGTVIEANDYGNFGGTFVIRDANDNDWIYGHLQRGSMRFVVGDKVNQGDIIGLQGNSNYYDNPMSVHLHLQLRPKDAKKDEKSQVCSGLAMEKYDITNLNAKQDKSKNGSVKELKHIYSNHIKGNKITAPKPSIQGVVIHNDYGSMTPSQYLPWLYARENNGTHVNGWASVYANRNEVLWYHPTDYVEWHCGNQWANANLIGFEVCESYPGRISDKLFLENEEATLKVAADVMKSYGLPVNRNTVRLHNEFFGTSCPHRSWDLHVGKGEPYTTTNINKMKDYFIKRIKHYYDGGKLEVSKAATIKQSDVKQEVKKQEAKQIVKATDWKQNKDGIWYKAEHASFTVTAPEGIITRYKGPWTGHPQAGVLQKGQTIKYDEVQKFDGHVWVSWETFEGETVYMPVRTWDAKTGKVGKLWGEIK
For B1, the binding result in assay [2] is reported as “no binding”.
